US20120269790A1, “USE OF PLANT EXTRACTS AS PREBIOTICS, COMPOSITIONS AND FOODS CONTAINING SUCH EXTRACT” (priority 2009, published 2012)
For at least one compound, name, drawing or mass did not settle the structure.

Tested on: alpha-glucosidase from pig
Test: In vitro inhibition of pig alpha-glucosidase
Type: biochemical
Conditions: 125 micrograms/ml; 100% = activity without inhibitor

In the case of `C[C@H]1O[C@H](O[C@H]2[C@H](O)[C@@H](O)[C@@H](O[C@H]3[C@H](O)[C@@H](O)C(O)O[C@@H]3CO)O[C@@H]2CO)[C@H](O)[C@@H](O)[C@@H]1N[C@H]1C=C(CO)[C@@H](O)[C@H](O)[C@H]1O` (stereo partly shown) [acarbose], the “% Pig alfa-glucosidase Activity” value is reported as 57.0 ± 2.2%.
